# Results are given in words; binding and its absence hold for the method and conditions named. For some of these results: In cells and extracts the contact can be indirect. Some entries that bind do so weakly or less than the wild type. For some of these results: Where a sequence is shown, tags or fusion partners need not be part of it.
# T1: MYC2-TNKS, wild type, full length (human), O95271
# T1 chain: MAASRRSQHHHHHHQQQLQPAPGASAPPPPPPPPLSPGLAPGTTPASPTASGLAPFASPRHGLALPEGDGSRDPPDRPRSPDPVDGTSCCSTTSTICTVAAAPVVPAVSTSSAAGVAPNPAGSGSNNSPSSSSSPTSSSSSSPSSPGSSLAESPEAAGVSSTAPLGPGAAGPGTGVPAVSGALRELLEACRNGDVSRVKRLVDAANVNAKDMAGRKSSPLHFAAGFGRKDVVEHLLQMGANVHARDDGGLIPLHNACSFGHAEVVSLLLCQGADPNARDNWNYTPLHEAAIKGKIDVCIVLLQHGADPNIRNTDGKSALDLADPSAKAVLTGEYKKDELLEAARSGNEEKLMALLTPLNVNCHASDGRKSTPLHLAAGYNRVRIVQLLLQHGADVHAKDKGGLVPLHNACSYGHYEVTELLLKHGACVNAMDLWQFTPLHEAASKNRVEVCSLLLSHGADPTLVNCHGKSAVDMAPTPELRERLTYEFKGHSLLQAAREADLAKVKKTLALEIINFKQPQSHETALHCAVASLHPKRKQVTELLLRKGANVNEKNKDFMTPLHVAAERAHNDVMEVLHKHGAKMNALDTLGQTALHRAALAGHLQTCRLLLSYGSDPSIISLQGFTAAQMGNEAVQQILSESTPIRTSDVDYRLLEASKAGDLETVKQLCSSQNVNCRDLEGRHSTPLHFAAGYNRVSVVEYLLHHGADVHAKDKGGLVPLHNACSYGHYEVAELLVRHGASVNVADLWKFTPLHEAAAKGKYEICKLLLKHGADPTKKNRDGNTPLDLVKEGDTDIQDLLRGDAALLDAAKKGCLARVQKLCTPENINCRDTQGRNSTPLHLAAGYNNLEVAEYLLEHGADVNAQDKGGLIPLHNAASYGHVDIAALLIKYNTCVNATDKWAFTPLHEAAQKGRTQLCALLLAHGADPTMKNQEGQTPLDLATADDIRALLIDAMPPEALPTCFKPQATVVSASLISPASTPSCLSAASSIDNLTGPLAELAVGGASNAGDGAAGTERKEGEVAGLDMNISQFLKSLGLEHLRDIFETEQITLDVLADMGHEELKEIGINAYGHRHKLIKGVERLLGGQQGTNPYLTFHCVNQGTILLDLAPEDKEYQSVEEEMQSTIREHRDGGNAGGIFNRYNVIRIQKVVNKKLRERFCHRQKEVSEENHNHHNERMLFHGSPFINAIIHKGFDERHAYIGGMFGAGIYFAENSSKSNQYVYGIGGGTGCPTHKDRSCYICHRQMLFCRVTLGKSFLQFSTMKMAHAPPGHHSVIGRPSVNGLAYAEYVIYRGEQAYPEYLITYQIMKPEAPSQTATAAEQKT
# T2: FLAG3-TNKS, wild type, full length (human), O95271
# T2 chain: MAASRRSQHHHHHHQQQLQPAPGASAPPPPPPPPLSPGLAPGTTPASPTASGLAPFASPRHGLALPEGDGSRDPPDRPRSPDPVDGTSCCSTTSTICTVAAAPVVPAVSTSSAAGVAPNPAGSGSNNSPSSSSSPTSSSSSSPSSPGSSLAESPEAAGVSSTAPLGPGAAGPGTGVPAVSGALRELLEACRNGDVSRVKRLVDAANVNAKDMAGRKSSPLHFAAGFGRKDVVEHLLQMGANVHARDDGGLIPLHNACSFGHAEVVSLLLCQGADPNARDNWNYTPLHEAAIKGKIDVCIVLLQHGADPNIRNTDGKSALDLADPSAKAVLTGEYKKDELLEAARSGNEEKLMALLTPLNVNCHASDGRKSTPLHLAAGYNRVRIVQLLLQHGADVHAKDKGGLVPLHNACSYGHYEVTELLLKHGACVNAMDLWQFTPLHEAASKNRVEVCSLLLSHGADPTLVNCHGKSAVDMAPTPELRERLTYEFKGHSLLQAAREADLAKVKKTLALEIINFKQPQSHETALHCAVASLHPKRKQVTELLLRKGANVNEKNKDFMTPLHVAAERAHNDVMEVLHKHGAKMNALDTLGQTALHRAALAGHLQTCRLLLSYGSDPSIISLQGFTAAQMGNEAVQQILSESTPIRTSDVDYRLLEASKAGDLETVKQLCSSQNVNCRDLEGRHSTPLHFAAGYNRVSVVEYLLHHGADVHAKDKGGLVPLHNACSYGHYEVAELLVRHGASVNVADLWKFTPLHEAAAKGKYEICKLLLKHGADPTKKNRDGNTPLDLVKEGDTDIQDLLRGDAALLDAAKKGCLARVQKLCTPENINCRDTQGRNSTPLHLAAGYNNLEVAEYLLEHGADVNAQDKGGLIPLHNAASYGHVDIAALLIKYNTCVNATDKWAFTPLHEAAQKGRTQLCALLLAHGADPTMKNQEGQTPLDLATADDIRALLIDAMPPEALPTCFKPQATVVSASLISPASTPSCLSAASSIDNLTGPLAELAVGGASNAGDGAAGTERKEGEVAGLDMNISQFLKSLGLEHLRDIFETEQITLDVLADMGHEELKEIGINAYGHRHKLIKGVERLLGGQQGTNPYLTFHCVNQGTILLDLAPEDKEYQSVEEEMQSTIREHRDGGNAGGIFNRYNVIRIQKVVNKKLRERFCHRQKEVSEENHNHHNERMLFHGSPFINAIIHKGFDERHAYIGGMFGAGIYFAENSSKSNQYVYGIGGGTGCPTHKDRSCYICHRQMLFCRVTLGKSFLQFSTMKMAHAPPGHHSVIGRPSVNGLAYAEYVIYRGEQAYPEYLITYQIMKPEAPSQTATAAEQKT
# What was measured:
# [1] = molecular target: FLAG3-TNKS, wild type, full length (human) (UniProt O95271); test: co-IP; HEK293T cells transfected with FLAG3- and MYC2-Tankyrases; WT FLAG3-Tankyrase precipitated with anti-FLAG M2 affinity gel; MYC2-Tankyrases detected by western blot
# TNKS SAM V1056W (human) = TNKS SAM V1056W (human) (UniProt O95271); test: ITC; EH mutant (TNKS2 SAM Y920A or TNKS SAM Y1073A, 500 μM) injected in 2-μl increments into ML mutant (TNKS2 SAM V903W or TNKS SAM V1056W, 50 μM); binding buffer with 200 mM NaCl; one-site binding model; both purified
# [2] = molecular target: T1, MYC2-TNKS, wild type, full length …; test: SEC; gel filtration (fractionation) of cell lysates, Figure S6A; cells and tags not shown; conditions: remark: other sources report otherwise
# [3] = molecular target: T2, FLAG3-TNKS, wild type, full length …; test: co-IP; HEK293T cells transfected with FLAG3- and MYC2-Tankyrases; WT FLAG3-Tankyrase precipitated with anti-FLAG M2 affinity gel; MYC2-Tankyrases detected by western blot; conditions: remark: other sources report otherwise
binding [1],Molecule,other results
binds,"MYC2-TNKS V1056W, full length (from UniProt O95271 1-1327) (enzyme)",–
no binding,"MYC2-TNKS VY1056/1073WA, full length (from UniProt O95271 1-1327) (enzyme)",–
binds,"MYC2-TNKS Y1073A, full length (from UniProt O95271 1-1327) (enzyme)",–
–,TNKS SAM Y1073A (from UniProt O95271 1018-1093) (domain or fragment),binding (TNKS SAM V1056W (human)): binds
binds,"TNKS T1049R, full length (from UniProt O95271 1-1327) (enzyme)",–
–,"MYC2-TNKS, wild type, full length, O95271 1-1327 (enzyme) MAASRRSQHHHHHHQQQLQPAPGASAPPPPPPPPLSPGLAPGTTPASPTASGLAPFASPRHGLALPEGDGSRDPPDRPRSPDPVDGTSCCSTTSTICTVAAAPVVPAVSTSSAAGVAPNPAGSGSNNSPSSSSSPTSSSSSSPSSPGSSLAESPEAAGVSSTAPLGPGAAGPGTGVPAVSGALRELLEACRNGDVSRVKRLVDAANVNAKDMAGRKSSPLHFAAGFGRKDVVEHLLQMGANVHARDDGGLIPLHNACSFGHAEVVSLLLCQGADPNARDNWNYTPLHEAAIKGKIDVCIVLLQHGADPNIRNTDGKSALDLADPSAKAVLTGEYKKDELLEAARSGNEEKLMALLTPLNVNCHASDGRKSTPLHLAAGYNRVRIVQLLLQHGADVHAKDKGGLVPLHNACSYGHYEVTELLLKHGACVNAMDLWQFTPLHEAASKNRVEVCSLLLSHGADPTLVNCHGKSAVDMAPTPELRERLTYEFKGHSLLQAAREADLAKVKKTLALEIINFKQPQSHETALHCAVASLHPKRKQVTELLLRKGANVNEKNKDFMTPLHVAAERAHNDVMEVLHKHGAKMNALDTLGQTALHRAALAGHLQTCRLLLSYGSDPSIISLQGFTAAQMGNEAVQQILSESTPIRTSDVDYRLLEASKAGDLETVKQLCSSQNVNCRDLEGRHSTPLHFAAGYNRVSVVEYLLHHGADVHAKDKGGLVPLHNACSYGHYEVAELLVRHGASVNVADLWKFTPLHEAAAKGKYEICKLLLKHGADPTKKNRDGNTPLDLVKEGDTDIQDLLRGDAALLDAAKKGCLARVQKLCTPENINCRDTQGRNSTPLHLAAGYNNLEVAEYLLEHGADVNAQDKGGLIPLHNAASYGHVDIAALLIKYNTCVNATDKWAFTPLHEAAQKGRTQLCALLLAHGADPTMKNQEGQTPLDLATADDIRALLIDAMPPEALPTCFKPQATVVSASLISPASTPSCLSAASSIDNLTGPLAELAVGGASNAGDGAAGTERKEGEVAGLDMNISQFLKSLGLEHLRDIFETEQITLDVLADMGHEELKEIGINAYGHRHKLIKGVERLLGGQQGTNPYLTFHCVNQGTILLDLAPEDKEYQSVEEEMQSTIREHRDGGNAGGIFNRYNVIRIQKVVNKKLRERFCHRQKEVSEENHNHHNERMLFHGSPFINAIIHKGFDERHAYIGGMFGAGIYFAENSSKSNQYVYGIGGGTGCPTHKDRSCYICHRQMLFCRVTLGKSFLQFSTMKMAHAPPGHHSVIGRPSVNGLAYAEYVIYRGEQAYPEYLITYQIMKPEAPSQTATAAEQKT",binding [2]: binds; binding [3]: binds

# — PMC4980433 (Molecular Cell, 2016)
